# From the supplement of paper PMC8728848
# Some of the results follow.
# How the values were obtained:
# Test in all cases: glycan array binding signal (z-score within array); higher = stronger binding
# Conditions in all cases: glycan notation: IUPAC condensed, linker removed
# [1] = biological target: Neu5Ac(a2-6)Gal(b1-4)GlcNAc(b1-2)Man(a1-3)[Neu5Ac(a2-3)Gal(b1-4)GlcNAc(b1-2)Man(a1-6)]Man(b1-4)GlcNAc(b1-4)GlcNAc
# In short: (§1)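 Columns mapping to the same glycan were averaged after glycan names were converted to IUPAC-condensed notation. The data come from 3228 arrays in the Consortium for Functional Glycomics database, limited to those with an available protein sequence. Binding is reported as a within-array Z-score averaged across arrays of one protein sequence and across linkers.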
# [2] = biological target: Neu5Ac(a2-6)Gal(b1-4)GlcNAc(b1-2)Man(a1-3)[Neu5Ac(a2-6)Gal(b1-4)GlcNAc(b1-2)Man(a1-6)]Man(b1-4)GlcNAc(b1-4)GlcNAc
# In short: as §1
# [3] = biological target: Neu5Ac(a2-6)Gal(b1-4)GlcNAc(b1-2)Man(a1-3)[Neu5Ac(a2-6)Gal(b1-4)GlcNAc(b1-2)Man(a1-6)]Man(b1-4)GlcNAc(b1-4)[Fuc(a1-6)]GlcNAc
# In short: as §1
# [4] = biological target: Neu5Ac(a2-6)Gal(b1-4)GlcNAc(b1-2)Man(a1-6)Man(b1-4)GlcNAc(b1-4)GlcNAc
# In short: as §1
# [5] = biological target: Neu5Ac(a2-6)Gal(b1-4)GlcNAc(b1-2)Man(a1-6)[Gal(b1-4)GlcNAc(b1-2)Man(a1-3)]Man(b1-4)GlcNAc(b1-4)GlcNAc
# In short: as §1
# [6] = biological target: Neu5Ac(a2-6)Gal(b1-4)GlcNAc(b1-2)Man(a1-6)[GlcNAc(b1-2)Man(a1-3)]Man(b1-4)GlcNAc(b1-4)GlcNAc
# In short: as §1
# [7] = biological target: Neu5Ac(a2-6)Gal(b1-4)GlcNAc(b1-2)Man(a1-6)[Man(a1-3)]Man(b1-4)GlcNAc(b1-4)GlcNAc
# In short: as §1
# [8] = biological target: Neu5Ac(a2-6)Gal(b1-4)GlcNAc(b1-2)[Neu5Ac(a2-6)Gal(b1-4)GlcNAc(b1-4)]Man(a1-3)[GlcNAc(b1-4)][Neu5Ac(a2-6)Gal(b1-4)GlcNAc(b1-2)[Neu5Ac(a2-6)Gal(b1-4)GlcNAc(b1-6)]Man(a1-6)]Man(b1-4)GlcNAc(b1-4)GlcNAc
# In short: as §1
# [9] = biological target: Neu5Ac(a2-6)Gal(b1-4)GlcNAc(b1-2)[Neu5Ac(a2-6)Gal(b1-4)GlcNAc(b1-4)]Man(a1-3)[GlcNAc(b1-4)][Neu5Ac(a2-6)Gal(b1-4)GlcNAc(b1-4)Man(a1-6)]Man(b1-4)GlcNAc(b1-4)GlcNAc
# In short: as §1
# [10] = biological target: Neu5Ac(a2-6)Gal(b1-4)GlcNAc(b1-2)[Neu5Ac(a2-6)Gal(b1-4)GlcNAc(b1-6)]Man(a1-6)[Neu5Ac(a2-6)Gal(b1-4)GlcNAc(b1-2)Man(a1-3)][GlcNAc(b1-4)]Man(b1-4)GlcNAc(b1-4)GlcNAc
# In short: as §1
# [11] = biological target: Neu5Ac(a2-6)Gal(b1-4)GlcNAc(b1-3)Gal(b1-3)GlcNAc
# In short: as §1
# [12] = biological target: Neu5Ac(a2-6)Gal(b1-4)GlcNAc(b1-3)Gal(b1-4)GlcNAc
# In short: as §1
# [13] = biological target: Neu5Ac(a2-6)Gal(b1-4)GlcNAc(b1-3)Gal(b1-4)GlcNAc(b1-2)Man(a1-3)[Neu5Ac(a2-6)Gal(b1-4)GlcNAc(b1-3)Gal(b1-4)GlcNAc(b1-2)Man(a1-6)]GalNAc
# In short: as §1
# [14] = biological target: Neu5Ac(a2-6)Gal(b1-4)GlcNAc(b1-3)Gal(b1-4)GlcNAc(b1-3)Gal(b1-4)GlcNAc
# In short: as §1
# [15] = biological target: Neu5Ac(a2-6)Gal(b1-4)GlcNAc(b1-3)Gal(b1-4)GlcNAc(b1-3)Gal(b1-4)GlcNAc(b1-2)Man(a1-3)[Neu5Ac(a2-6)Gal(b1-4)GlcNAc(b1-3)Gal(b1-4)GlcNAc(b1-3)Gal(b1-4)GlcNAc(b1-2)Man(a1-6)]GalNAc
# In short: as §1
# [16] = biological target: Neu5Ac(a2-6)Gal(b1-4)GlcNAc(b1-3)Gal(b1-4)GlcNAc(b1-3)GalNAc
# In short: as §1
# [17] = biological target: Neu5Ac(a2-6)Gal(b1-4)GlcNAc(b1-3)Gal(b1-4)GlcNAc(b1-3)[Neu5Ac(a2-6)Gal(b1-4)GlcNAc(b1-3)Gal(b1-4)GlcNAc(b1-6)]GalNAc
# In short: as §1
# [18] = biological target: Neu5Ac(a2-6)Gal(b1-4)GlcNAc(b1-3)Gal(b1-4)GlcNAc(b1-6)[Gal(b1-3)]GalNAc
# In short: as §1
# [19] = biological target: Neu5Ac(a2-6)Gal(b1-4)GlcNAc(b1-3)Gal(b1-4)[Fuc(a1-3)]GlcNAc(b1-3)Gal(b1-4)[Fuc(a1-3)]GlcNAc
# In short: as §1
# [20] = biological target: Neu5Ac(a2-6)Gal(b1-4)GlcNAc(b1-3)GalNAc
# In short: as §1
# [21] = biological target: Neu5Ac(a2-6)Gal(b1-4)GlcNAc(b1-3)[Neu5Ac(a2-6)Gal(b1-4)GlcNAc(b1-6)]GalNAc
# In short: as §1
# [22] = biological target: Neu5Ac(a2-6)Gal(b1-4)GlcNAc(b1-6)GalNAc
# In short: as §1
# [23] = biological target: Neu5Ac(a2-6)Gal(b1-4)GlcNAc(b1-6)[Gal(b1-3)GlcNAc(b1-3)]Gal(b1-4)Glc
# In short: as §1
# [24] = biological target: Neu5Ac(a2-6)Gal(b1-4)GlcNAc(b1-6)[Gal(b1-3)]GalNAc
# In short: as §1
# [25] = biological target: Neu5Ac(a2-6)Gal(b1-4)GlcNAc6S
# In short: as §1
# [26] = biological target: Neu5Ac(a2-6)GalNAc
# In short: as §1
# [27] = biological target: Neu5Ac(a2-6)GalNAc(b1-4)GlcNAc
# In short: as §1
# [28] = biological target: Neu5Ac(a2-6)GalNAc(b1-4)GlcNAc6S
# In short: as §1
# [29] = biological target: Neu5Ac(a2-6)GlcNAc(b1-4)GlcNAc
# In short: as §1
# [30] = biological target: Neu5Ac(a2-6)GlcNAc(b1-4)GlcNAc(b1-4)GlcNAc
# In short: as §1
binder,measurement,setting,value
"SAOUHSC 02783 (Staphylococcus aureus), Q5HD69 (protein) MIHSKKLTLGICLVLLIILIVGYVIMTKTNGRNAQIKDTFNQTLKLYPTKNLDDFYDKEGFRDQEFKKGDKGTWIVNSEMVIEPKGKDMETRGMVLYINRNTRTTKGYYFISEMTDDSNGRPKDDEKRYPVKMEHNKIIPTKPLPNDKLKKEIENFKFFVQYGNFKDINDYKDGDISYNPNVPSYSAKYQLNNDDYNVQQLRKRYDIPTKQAPKLLLKGDGDLKGSSVGSRSLEFTFVENKEENIYFTDSVQYTPSEDTRYESN",glycan array binding signal (z-score),[1],1.38
same,glycan array binding signal (z-score),[2],0.526
same,glycan array binding signal (z-score),[3],2.81
same,glycan array binding signal (z-score),[4],0.444
same,glycan array binding signal (z-score),[5],-1.57
same,glycan array binding signal (z-score),[6],-0.644
same,glycan array binding signal (z-score),[7],2.58
same,glycan array binding signal (z-score),[8],-0.219
same,glycan array binding signal (z-score),[9],0.093
same,glycan array binding signal (z-score),[10],-0.756
same,glycan array binding signal (z-score),[11],-0.235
same,glycan array binding signal (z-score),[12],-0.066
same,glycan array binding signal (z-score),[13],-0.25
same,glycan array binding signal (z-score),[14],-0.045
same,glycan array binding signal (z-score),[15],2.33
same,glycan array binding signal (z-score),[16],-0.757
same,glycan array binding signal (z-score),[17],1.43
same,glycan array binding signal (z-score),[18],-0.472
same,glycan array binding signal (z-score),[19],0.316
same,glycan array binding signal (z-score),[20],-0.087
same,glycan array binding signal (z-score),[21],-0.21
same,glycan array binding signal (z-score),[22],0.327
same,glycan array binding signal (z-score),[23],0.4
same,glycan array binding signal (z-score),[24],1.36
same,glycan array binding signal (z-score),[25],1.94
same,glycan array binding signal (z-score),[26],-0.602
same,glycan array binding signal (z-score),[27],-1.67
same,glycan array binding signal (z-score),[28],-0.378
same,glycan array binding signal (z-score),[29],1.36
same,glycan array binding signal (z-score),[30],1.87

# Reformatted with bars between the fields: entries from further up
binder | measurement | setting | value
SAOUHSC 02783 (Staphylococcus aureus), Q5HD69 (protein) MIHSKKLTLGICLVLLIILIVGYVIMTKTNGRNAQIKDTFNQTLKLYPTKNLDDFYDKEGFRDQEFKKGDKGTWIVNSEMVIEPKGKDMETRGMVLYINRNTRTTKGYYFISEMTDDSNGRPKDDEKRYPVKMEHNKIIPTKPLPNDKLKKEIENFKFFVQYGNFKDINDYKDGDISYNPNVPSYSAKYQLNNDDYNVQQLRKRYDIPTKQAPKLLLKGDGDLKGSSVGSRSLEFTFVENKEENIYFTDSVQYTPSEDTRYESN | glycan array binding signal (z-score) | [11] | -0.235
same | glycan array binding signal (z-score) | [18] | -0.472
